Assay results reported in publication PMC6925144, “A prospective compound screening contest identified broader inhibitors for Sirtuin 1” (Scientific Reports, 2019).
In all, about 3,200 compounds were measured (“TSA(without NAD+) / Primary screening (TSA) / delta Tm (K)”: median about -0.07, highest 2% from about 0.37 on). This is one part of the list.

Protein sequences, listed by entry. Tags and fused reporters are not part of them. Residues count along the entry.
UniProt Q96EB6, 2-747 limits assumed: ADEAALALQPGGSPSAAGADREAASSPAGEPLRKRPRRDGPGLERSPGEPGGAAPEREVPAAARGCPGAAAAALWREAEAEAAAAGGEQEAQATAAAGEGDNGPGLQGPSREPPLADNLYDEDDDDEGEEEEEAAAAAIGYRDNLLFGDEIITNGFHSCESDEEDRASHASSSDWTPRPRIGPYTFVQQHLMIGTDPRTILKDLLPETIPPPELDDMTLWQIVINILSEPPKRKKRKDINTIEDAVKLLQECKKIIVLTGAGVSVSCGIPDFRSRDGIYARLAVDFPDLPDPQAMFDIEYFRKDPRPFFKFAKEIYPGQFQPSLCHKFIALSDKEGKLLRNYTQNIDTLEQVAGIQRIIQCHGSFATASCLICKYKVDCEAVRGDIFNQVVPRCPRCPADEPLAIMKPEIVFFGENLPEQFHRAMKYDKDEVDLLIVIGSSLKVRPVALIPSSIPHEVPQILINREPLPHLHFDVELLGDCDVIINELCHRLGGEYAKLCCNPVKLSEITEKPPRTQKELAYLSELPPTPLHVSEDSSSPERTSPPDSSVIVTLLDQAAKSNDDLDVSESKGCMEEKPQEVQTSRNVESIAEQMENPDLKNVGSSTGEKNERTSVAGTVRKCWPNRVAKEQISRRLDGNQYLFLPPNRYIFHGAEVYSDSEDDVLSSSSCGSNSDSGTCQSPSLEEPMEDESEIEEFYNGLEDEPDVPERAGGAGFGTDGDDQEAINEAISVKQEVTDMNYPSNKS

molecular target: NAD-dependent deacetylase Sirtuin 1 (human, UniProt Q96EB6); experiment: primary screen, delta tm; parameters: single well (n = 1); settings: 10 µM
How it was run: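 Thermal shift of Sirtuin 1 measured without NAD+, compound at 10 µM (n = 1); value is ΔTm, with hits defined as ΔTm > 0.45 K or < −1.5 K. Hits retested at 5, 10, 20 µM (n = 4) and counterscreened on bovine carbonic anhydrase and ABL1 SH2 domain.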

Compound | TSA(without NAD+) / Primary screening (TSA) / delta Tm (K)
Cc1ccc(Cn2c(=O)c3ccccc3n3c(SCC4CCCCO4)nnc23)cc1 (stereo not shown) | -0.22 K
CCS(=O)(=O)CCNC(=O)/C=C/c1cccc2ccccc12 | -0.13 K
O=C(Nc1cccc(S(=O)(=O)N2CCOCC2)c1)c1ccccc1COc1ccccc1 | -0.13 K
CC(C(=O)c1c[nH]c2ccccc12)N(C)CCOc1ccccc1F (stereo not shown) | -0.08 K
CC(CN)C1CC1 (stereo not shown) | -0.18 K
O=C(CSc1nnc(NCc2ccco2)s1)Nc1nc(-c2ccc(F)cc2)cs1 | -0.13 K
Cc1cccc2nc(C(=O)Nc3nc(SCc4ccc(Cl)cc4)n[nH]3)cn12 | -0.03 K
COC(=O)c1ccc(C2C(C(=O)c3sc(C)nc3C)=C(O)C(=O)N2CCN2CCOCC2)cc1 (stereo not shown) | -0.03 K
COc1ccc(N(Cc2ccc(C(N)=O)cc2)Cc2ccc(C(N)=O)cc2)cc1 | 0.02 K
CS(=O)(=O)NN | -0.02 K
Cc1nn(-c2ccc(F)cc2)c(C)c1CNCc1ccccc1 | -0.13 K
NC1CCCCC1N (stereo not shown) | -0.02 K
CN(CC(=O)Nc1ccccc1Cl)C(=O)CNc1cccc(OC(F)(F)F)c1 | 0.08 K
CCNCCO | -0.13 K
O=C(CN1CCN(C(=O)c2ccccc2C(=O)c2ccccc2)CC1)Nc1ccccc1Cl | 0.02 K
COc1cc(CN(C)C(=O)Cn2c(=O)oc3ccccc32)ccc1OCc1ccccc1 | 0.03 K
CC1CCN(c2ccc(C(=O)Nc3ncc(C(N)=O)s3)cc2[N+](=O)[O-])CC1 | 0.16 K
Cn1c(NCc2cccnc2)c(C#N)c(=O)n(C)c1=O | 0.02 K
Cc1noc(C)c1COc1ccccc1C(=O)NCCc1cccnc1 | -0.12 K
COC(=O)C1=C(C)OC(CSc2nnc(CCC3CCCC3)[nH]2)C1 (stereo not shown) | -0.11 K
CCCN(Cc1nnc(-c2ccccc2Cl)o1)C(=O)c1cccc(S(=O)(=O)N(C)c2ccc(C)cc2)c1 | -0.13 K
CCSC1CCC(NC(=O)Cc2cnc3ccccc3c2)C1 (stereo not shown) | -0.24 K
Cc1ccc2c(c1)nc(-c1cnc(N3CCCC3)nc1)n2C | -0.05 K
O=C(NO)c1cccc(C(F)(F)F)c1 | -0.13 K

Filtered by structure, those above containing an aryl methoxy group
Compound | TSA(without NAD+) / Primary screening (TSA) / delta Tm (K)
COc1ccc(N(Cc2ccc(C(N)=O)cc2)Cc2ccc(C(N)=O)cc2)cc1 | 0.02 K
COc1cc(CN(C)C(=O)Cn2c(=O)oc3ccccc32)ccc1OCc1ccccc1 | 0.03 K

More entries:

Compound | TSA(without NAD+) / Primary screening (TSA) / delta Tm (K)
Cc1ccc(Nc2nc(CSc3nnc(NCc4ccco4)s3)cs2)cc1 | -0.17 K
NC(c1ccccc1)c1ccc(Cl)cc1 (stereo not shown) | -0.18 K
CC(=O)c1ccccc1NC(=O)c1cc(F)c(F)c(F)c1F | -0.24 K
CCN(CC(=O)Nc1ccc(OC)cc1)C(C)C(=O)Nc1ccc(C(N)=O)cc1 (stereo not shown) | 0.08 K
CNC(=O)CS | -0.18 K
Cc1nc(N2CCC(NC(N)=O)CC2)c2c3c(sc2n1)CCCC3 | -0.03 K
Cc1nc(N2CCC(C(N)=O)CC2)c2cc(-c3ccccc3)sc2n1 | -0.21 K
CC1CC(C(N)=O)c2ccccc2N1Cc1nc(-c2cccc(C(F)(F)F)c2)no1 (stereo not shown) | -0.22 K
Cn1c2ccccc2c2cc(S(=O)(=O)NCc3cccc(NC(=O)C4CC4)c3)ccc21 | -0.03 K
O=C(Nc1ccccc1)C1CCN(c2ncnc3scc(-c4ccc(F)cc4)c23)CC1 | -0.02 K
CC12CCC(=O)N1C(C(=O)O)Cc1c2[nH]c2ccccc12 (stereo not shown) | 0.12 K
Cc1ccccc1-c1nnc(Nc2cccc(S(=O)(=O)N(C)c3ccccc3)c2)o1 | -0.13 K
O=C(O)C(O)CS(=O)(=O)O (stereo not shown) | -0.28 K
CC(C)(C)c1nc(CN2CCN(c3ncnc4c3oc3ccccc34)CC2)no1 | -0.18 K
O=C(c1cc2ccccc2oc1=O)N1CCC(c2ccc(O)cc2)CC1 | -0.37 K
Brc1ccc2[nH]c3c(c2c1)CCCCCC3 | 0.19 K
CN(c1ccc(OCCCC(C)(C)C#N)cc1)S(=O)(=O)c1ccc(Cl)cc1 | 0.07 K
O=[N+]([O-])c1cnn(-c2ncnc3ccsc23)c1 | -0.14 K
CCCOc1c(Cl)cc(/C=C/C(=O)Nc2c(C(N)=O)n[nH]c2C)cc1OC | -0.04 K
CC(OC(=O)C1=CN2CCS(=O)(=O)N=C2C=C1)C(=O)Nc1ccc(Oc2ccccc2)cc1 (stereo not shown) | 0.02 K
Cc1nc(C#N)c(C#N)n1Cc1cnn(-c2ccccc2)c1 | -0.08 K
O=C(CCCn1c(=O)oc2ccccc21)Nc1ccc(N2CCN(Cc3ccccc3)CC2)cc1 | 0.02 K
CCCn1c2c(c(=O)[nH]c1=O)C(=O)C(C)N2 (stereo not shown) | -0.05 K
FC(F)(F)c1nnc2ccc(NC3CC3)nn12 | -0.18 K

Compound | TSA(without NAD+) / Primary screening (TSA) / delta Tm (K)
Cc1ccc(C(=O)Nc2nc3ccc(NS(=O)(=O)c4ccc5c(c4)CCC(=O)N5)cc3s2)s1 | 0.66 K
CC1CC(N(C)CCCOc2cccc(S(C)(=O)=O)c2)C(=O)O1 (stereo not shown) | -0.11 K
O=C1/C(=C/c2ccc(OC(F)F)cc2OC(F)F)Oc2cc(O)ccc21 | 0.16 K
Cc1n[nH]c(=O)c(C(=O)NNC(=O)CC23CC4CC(CC(C4)C2)C3)c1C | 0.35 K
Cc1nc(N2CCN(c3cccc(C(F)(F)F)c3)CC2)c2c3c(sc2n1)CCC3 | 0.16 K
Cc1nc(N2CCC(c3nnc(N(C)C)[nH]3)CC2)c2c3c(sc2n1)CCCC3 | -0.14 K
Cn1c(-c2ccccc2)c(C(=O)CC#N)c2ccccc21 | -0.08 K
COc1ccc(NC(=O)COC(=O)/C=C/c2cc(OC)c(OC)c(S(=O)(=O)N3CCc4ccccc43)c2)cc1S(=O)(=O)N1CCCCC1 | 0.02 K
O=C1CCCN1C(=O)Cn1cnc2cc(Cl)ccc2c1=O | -0.11 K
Cc1ccc2[nH]c(SCC(=O)N3CCCC(C(N)=O)C3)nc2c1 (stereo not shown) | -0.18 K
CN(c1ccc(CNC(=O)c2cc[n+]([O-])cc2)cc1)C1CCCCC1 | -0.07 K
NC(=O)c1cc(NC(=O)CN2CCCC2c2cccs2)cc(C(N)=O)c1 (stereo not shown) | -0.02 K
Cc1ccc2[nH]c3c(c2c1)CC(N1CC(CN)CC1C)CC3 (stereo not shown) | -0.12 K
Cc1onc(-c2ccccc2)c1C(=O)NC1CCCc2ccccc21 (stereo not shown) | 0.12 K
O=C(NCc1cccc(C(F)(F)F)c1)c1sc2ccccc2c1Cl | -0.12 K
Cc1nc(CN2CCCN(Cc3ccc(C(N)=O)cc3)CC2)no1 | 0.09 K
CCCOc1ccc(C(=O)C2=C(O)C(=O)N(CCN3CCOCC3)C2c2cccs2)cc1 (stereo not shown) | -0.14 K
O=C1NC2(CCc3ccccc3C2)C(=O)N1Cc1nnc(-c2ccc(Cl)cc2)o1 (stereo not shown) | -0.03 K
COc1cc(C(=O)Nc2ncc(Cc3cccc(C)c3)s2)ccc1OCC(=O)N1CCOCC1 | -0.23 K
Cc1cnc(C(=O)N2CCCC2C(=O)Nc2ccccc2)cn1 (stereo not shown) | -0.13 K
CCN1CCN(c2ccc(NC(=O)NC(C)CCc3ccc(O)cc3)c(C)c2)CC1 (stereo not shown) | -0.07 K
O=C1/C(=C/NNC(=O)C23CC4CC(CC(C4)C2)C3)c2ccccc2C(=O)N1Cc1ccccc1 | 0.46 K
COC(=O)C[C@@H](C)OC(=O)c1cc(F)ccc1F | -0.15 K
COc1ccccc1NS(=O)(=O)c1cccc(NC(=O)Cn2[nH]c(=O)c3ccccc3c2=O)c1 | 0.06 K

Four entries out of the list, arranged by molecular weight, descending:
Compound | TSA(without NAD+) / Primary screening (TSA) / delta Tm (K)
O=C1/C(=C/NNC(=O)C23CC4CC(CC(C4)C2)C3)c2ccccc2C(=O)N1Cc1ccccc1 | 0.46 K
CCN(CC(=O)Nc1ccc(OC)cc1)C(C)C(=O)Nc1ccc(C(N)=O)cc1 (stereo not shown) | 0.08 K
Cc1ccc2c(c1)nc(-c1cnc(N3CCCC3)nc1)n2C | -0.05 K
NC1CCCCC1N (stereo not shown) | -0.02 K

Additional records follow.

Compound | TSA(without NAD+) / Primary screening (TSA) / delta Tm (K)
C=CCC(C)N (stereo not shown) | -0.14 K
Cc1ccc2c(COC(=O)c3cccc(S(=O)(=O)N(C)c4ccccc4)c3)cc(=O)oc2c1C | -0.02 K
Cc1sc2nc(-c3cccs3)nc(N3CCC(C(N)=O)CC3)c2c1C | 0.58 K
NCC(CN)(CO)CO | 0.03 K
Cc1[nH]ccc1C(=O)N(C)C1CC2CCC(C1)N2C(=O)OC(C)(C)C (stereo not shown) | -0.22 K
C=CCOc1cccc(C2C(C(=O)c3ccco3)=C(O)C(=O)N2CCCN2CCOCC2)c1 (stereo not shown) | -0.08 K
Cc1ccc(C(=Nc2c(C)cc(C)cc2C)c2ccc(C)cc2)cc1 | -0.04 K
Cc1csc2c(N3CCC4CCC(C3)N4C)ncnc12 (stereo not shown) | 0.03 K
C=CCN(CC=C)C(CNc1ccc2nnnn2n1)C(C)C (stereo not shown) | -0.33 K
O=C(c1n[nH]c2c1CCC2)N(CCc1ccccc1)Cc1ccncc1 | 0.06 K
O=C(Nc1cccc(S(=O)(=O)NCc2ccco2)c1)c1cc(-c2ccccc2)nc2ccccc12 | 0.15 K
Cc1ccc(Cc2cnc(NC(=O)CC(c3ccccc3)c3ccccc3)s2)cc1 | 0.03 K
O=C(Nc1cccc(S(=O)(=O)NCc2ccco2)c1)C1CCN(C(=O)Nc2ccccc2)CC1 | 0.02 K
CC1CCN(C(=O)C23CC4CC(C2)CC(c2ccccc2)(C4)C3)CC1 | -0.13 K
O=C1NC(C(=O)O)=CC(c2ccccc2C(F)(F)F)N1 (stereo not shown) | -0.27 K
COC(C)[C@@H](C)N (stereo partly shown) | -0.15 K
NC(=O)C1CCN(c2ncnc3cc(-c4ccc(Br)cc4)sc23)CC1 | -0.03 K
Cc1ccc(S(=O)(=O)N(C)c2ccc(C(=O)NCCCN3CCC(C(N)=O)CC3)cc2)cc1 | -0.31 K
Brc1cccc(-c2nc(CSc3nnc(NCc4ccco4)s3)cs2)c1 | 0.08 K
CC1CN=C(Nc2ccc(Cl)c(Cl)c2)S1 (stereo not shown) | -0.08 K
NC(=O)C1CCN(c2ncnc3c2c(-c2ccccc2)cn3-c2ccc(Cl)cc2)CC1 | -0.13 K
O=C(Nc1cc(S(=O)(=O)N2CCOCC2)ccc1O)C1=COCCO1 | -0.32 K
